Test results published in patent US20090285843A1 (Mannkind Corporation, priority 2002, published 2009).
Plain letter strings leave the end groups untold.

Assay: peptide made by a vendor
Conditions: whole synthesis

Row | Sequence | purity (crude or final not stated)
1 | SSIEGNYTLRVDCTPLMYSLVHLTKEL | purity>95%
2 | YFSKEEWEKMKASEKIFYVYMKRKYEAMTKLGFKATLP | 95%
